Measured values published in patent US20260315608A1, “Carrier Peptide Fragment and Use Thereof” (TOAGOSEI CO., LTD., priority 2022, published 2026).
Some of these results come from one statement about several compounds together.

System: WS-1 cells
Assay: Evaluation on cell toxicity of carrier peptide fragment (CCK-8 cell viability)
Format: cell-based, human
Settings: 24 hours, in words; for cell toxicity: concentration as high as 100 μM; for cell viability compared to 1.67% DMSO control: sample concentration up to 100 μM, CCK-8, absorbance 450 nm

## Ac-KKRTLRKDDEERKKR-FAM (N-acetyl; C-terminal FAM) [Example 5]
  cell toxicity: hardly observed
  cell viability compared to 1.67% DMSO control: did not decrease compared to the example in which 1.67% of DMSO was added

## Ac-KKRTLRKDEDERKKR-FAM (N-acetyl; C-terminal FAM) [Example 6]
  cell toxicity: hardly observed
  cell viability compared to 1.67% DMSO control: did not decrease compared to the example in which 1.67% of DMSO was added

## Ac-KKRTLRKDERKKR-FAM (N-acetyl; C-terminal FAM) [Example 1]
  cell toxicity: hardly observed
  cell viability compared to 1.67% DMSO control: did not decrease compared to the example in which 1.67% of DMSO was added

## Ac-KKRTLRKEDEDEDRKKR-FAM (N-acetyl; C-terminal FAM) [Example 7]
  cell toxicity: hardly observed
  cell viability compared to 1.67% DMSO control: did not decrease compared to the example in which 1.67% of DMSO was added

## Ac-KKRTLRKEDRKKR-FAM (N-acetyl; C-terminal FAM) [Example 2]
  cell toxicity: hardly observed
  cell viability compared to 1.67% DMSO control: did not decrease compared to the example in which 1.67% of DMSO was added

## Ac-KKRTLRKEEDDRKKR-FAM (N-acetyl; C-terminal FAM) [Example 4]
  cell toxicity: hardly observed
  cell viability compared to 1.67% DMSO control: did not decrease compared to the example in which 1.67% of DMSO was added
